Consider five substances from PMC7994712 (Nature Communications, 2021).

HELM strings list residues between dots; [ac] is acetyl, [am] amide, other brackets name non-standard units.

The nature of this data set: general procedure: Fmoc solid-phase peptide synthesis; 2-Cl-Trt; DIPCDI and HOBt. The following applies: whole synthesis, scale 0.25 g of 2-Cl-Trt resin ([…]), TFA salt for NMR; acetate salts for in vitro and in vivo studies.
Consider “PEPTIDE1{P.C.K.N.F.[Msa].[dW].K.T.F.T.S.C.K}$PEPTIDE1,PEPTIDE1,2:R3-13:R3$$$V2.0”, for which the crude mass was 0.56 g.

For “PEPTIDE1{P.C.K.N.[Msa].F.[dW].K.T.F.T.S.C.K}$PEPTIDE1,PEPTIDE1,2:R3-13:R3$$$V2.0”, the crude mass amounted to 0.53 g.

For the substance “PEPTIDE1{[Oct].P.C.K.N.F.[Msa].[dW].K.T.F.T.S.C.K}$PEPTIDE1,PEPTIDE1,3:R3-14:R3$$$V2.0”, the crude mass was determined as 0.50 g.

As for “PEPTIDE1{[Oct].P.C.K.N.[Msa].F.[dW].K.T.F.T.S.C.K}$PEPTIDE1,PEPTIDE1,3:R3-14:R3$$$V2.0”, the crude mass was found to be 0.55 g.

As for “PEPTIDE1{[Oct].P.C.K.N.[Msa].F.[dW].K.T.F.T.S.C}$PEPTIDE1,PEPTIDE1,3:R3-14:R3$$$V2.0”, the crude mass was found to be 0.53 g.
